According to patent US9757378B2, “Methods to modulate acute myeloid leukemia stem/progenitor cell expansion and/or differentiation” (UNIVERSITE DE MONTREAL, priority 2013, dated 2017):

Test system: primary human AML cells
Experiment: Secondary screen: dose response, five serial dilutions (CD34/CD15 flow cytometry)
Format: cell-based
Conditions: relative to dose tested in primary screen

Row | Compound | optimal concentration in 2ndary screen [×]
1 | COc1ccc(-c2oc3cc(O)cc(O)c3c(=O)c2O)cc1 [UM0119298, Kaempferide] | 1
2 | COc1cccc2oc(-c3ccccc3)cc(=O)c12 [UM0113898, 5-Methoxyflavone] | 2
3 | O=C(Nc1ccc2c(c1)OCCO2)c1sc2ccccc2c1Cl [UM0045609, 3-chloro-N-(2,3-dihydro-1,4-benzodioxin-6-yl)-1-benzithiophene-2-carboxamide] | 3
4 | COC(=O)c1ccc2c(c1)[nH]c1ncnc(NCCCN3CCCCC3)c12 [UM0125729, methyl 4-((3-(piperidin-1-yl)propyl)amino)-9H-pyrimido[4,5-b]indole-7-carboxylate] | 1
5 | CNC(=O)c1cc2c(cn1)[nH]c1ccccc12 [UM0119840, N-Methyl-beta-carboline-3-carboxamide] | 2
6 | COc1ccc(-c2coc3c(O)c(OC)ccc3c2=O)cc1 [UM0121179, Retusin 7-Methylether] | 3
